Patent US20240254209A1
No constants are given. Whether binding was seen depends on the method and setting. Some entries that bind do so weakly or less than the wild type. Where a sequence is shown, tags or fusion partners need not be part of it.

T1: peanut allergen Ara h 2 (peanut (Arachis hypogaea)) (UniProt Q6PSU2)
T1 sequence (looked up): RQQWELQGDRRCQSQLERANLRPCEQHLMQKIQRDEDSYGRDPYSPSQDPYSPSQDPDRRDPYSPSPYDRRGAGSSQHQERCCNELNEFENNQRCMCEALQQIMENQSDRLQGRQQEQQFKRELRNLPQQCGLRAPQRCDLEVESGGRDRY

T2: peanut allergen Ara h 6 (peanut (Arachis hypogaea)) (UniProt Q647G9)
T2 sequence (looked up): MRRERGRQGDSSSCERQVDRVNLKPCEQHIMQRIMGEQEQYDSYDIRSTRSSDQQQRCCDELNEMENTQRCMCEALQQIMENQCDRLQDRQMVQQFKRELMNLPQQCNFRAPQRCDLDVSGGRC


What was measured:
[1] = target: T1, peanut allergen Ara h 2 (peanut (Arachis hypogaea)); assay: allergen specificity as listed in Table D
[2] = target: T1, peanut allergen Ara h 2 (peanut (Arachis hypogaea)); assay: Phadia ImmunoCAP and/or ELISA and Western blot
[3] = target: T2, peanut allergen Ara h 6 (peanut (Arachis hypogaea)); assay: Phadia ImmunoCAP and/or ELISA and Western blot
[4] = target: T1, peanut allergen Ara h 2 (peanut (Arachis hypogaea)); assay: specificity told in the text
[5] = target: T1, peanut allergen Ara h 2 (peanut (Arachis hypogaea)); assay: told in the legend of FIG. 9
[6] = target: T1, peanut allergen Ara h 2 (peanut (Arachis hypogaea)); assay: antigenic site mapping
[7] = target: T1, peanut allergen Ara h 2 (peanut (Arachis hypogaea)); assay: told in the legend of FIG. 6

binding [1]	binding [2]	Binder	other results
binds	binds	human IgE mAb 9H11 (antibody, V domains shown) VH: QVQLMESGGGVVQPGGSLRLSCAASGFDFPGYGMHWVRQTPDKGLEWVAYIWYDARSEDYVDSVKGRFTISRDNSNNTLYLKMTDLRPQDTAMYYCAVGAPLEGYWGQGTRVTVSS VL: DIQMTQSPSSLSASVGDKVTITCRASQNIADYLSWFQQKPGKAPKILIYAASTLQSGVPSRFSGSGSGTHFTLTISSLQPEDFASYFCQQSYTSPTWTFGQGTKVEVK	
		human IgE mAb 26A5 (antibody, V domains shown) VH: QVQLVQSGSELRKPGASVKVSCKASGYTFTKYGMNWVRQAPGQGLEWMGWINTNTAKPTYAQDFTGRFVFSLDTSVNTAYLEISGLKAEDTAVYYCATDGSEGSWGQGTLVTVSS VL: DIQMTQSPSTLSASVGDRVTITCRASQSIGTWLAWHQQKPGTAPKVLIYKASNLKSGVPSRFSGSGSGTDFTLTISSLQPDDVATYYCQQYNTYSGTFGQGTRVEIK	binding [3]: binds
binds	binds	human IgE mAb 32G9 (antibody, V domains shown) VH: QVQLVQSGPEVRKPGASVRVSCTTSGYTFIDYEMNWVRQAPGQGLEWMGLINPHSGDTGYAQKFQDRVTMTSDTSLSTAYLELSGLTSEDTAVYYCARSQGTFEVYYFVSWGQGSLVTVSS VL: SYVLTQPPSVSVAPGKTASITCEAKNIVRKRVHWYRQKPGQAPVVVVSDDEDRSSVIPERVSGSKSGDTATLTISRVEAGDEADYYCQVWDSTTDQVVFGGGTKVTVL	
	binds	human IgE mAb 2F12 (antibody, V domains shown) VH: QVQLVQSGPEVKKPGASVKVSCQTSGYTFTDYEMNWVRQAPGQGLEWMGLINPHSGDTGYALKFQGRVTMTSDTSKSTVYLELSGLTSEDTAVYYCARSQGTFEVYYFVSWGQGSLVTVSS VL: SYVLTQPPSVSVAPGKTATITCGANGIGRKRVHWYSQRPGQAPVVVVSDDDDRSSVNPERFSASKSGDTAALTITRVEAGDEADYYCQVWDSRTDQVVFGGGTKVTVL	
binds	binds	human IgE mAb 5D7 (antibody, V domains shown) VH: QVQLVQSGSELKKPGASVKVSCEASGYNLTTYAMNWVRQAPGQGLEWMGWINTNTGNPTYAQDFTGHFVFSLDTSVSTAYLQISSLKAEDTAVYYCARDFGERGNCVNGVCYGGYGMDVWGQGTTVTVSS VL: DIQMTQSPSTLSASVGDRVTITCRASQSISRWLAWYQQKPGKVPKLLIYKASRLEGGVPSRFSGSGSGTEFTLTISSLQPDDFATYYCQEYTNYSGTFGQGTKVEIR	
binds	binds	human IgE mAb 16G12 (antibody, V domains shown) VH: EVQLVESGGGLVKPGGSLKLSCAASGFTFSDYYMYWVRQTPEKRLEWVATISDGGSYTYYPDNVKGRFTISRDNAKNTLYLQMSHLKSEDTAMYYCARDKGPIVPMPMDYWGQGTSVTVSS VL: SYELTQPLSVSVSPGQTVNITCSGDKLGAKFTCWYQQKPGQSPILVLYQDTKRPPGIPERFSGSNSGNTATLTISGTQAMDEADYYCQAWESGIVAFGGGTKLTVV	binding [4]: binds
binds	binds	human IgE mAb 11F10 (antibody, V domains shown) VH: EVQLVESGGGLVQPGRSLRLSCAASGFTFDDYTMHWVRQAPGKGLEWVSSIRWNSGNLDYADSVKGRFTISRDNARHSLYLQMNSLRAEDTALYYCVKDNGLRTLDFWGQGTLVTVSS VL: DIVMTQSPLSLPVTPGEPASISCRSSQSLLHRNGYNYLDWYLQKPGQSPQLLISLASNRASGVPDRFSGSGSGTDFTLKISRVEAEDVGVYYCMQALQTWTFGQGTKVELK	binding [5]: binds
binds	binds	human IgE mAb 15B8 (antibody, V domains shown) VH: QVQLVESGGRVVQPGESLRLSCETSGFPFHDHGMHWVRQAPGKGLEWVAFIRFDSTSKYTSDSVRGRFSISRDNSKSTLFLQMNNLRREDTAIYYCARDANARFGVMIMAHWGQGTLVTVSS VL: DIQLTQSPSSLSASVGDRVTITCQASQDIGHYLNWYLQKPGQAPQVLIYDASNLVTGVPSRFSGSGSGTHFTFTISSLQPEDFGTYYCHQHEKLYSISFGQGTRLDIK	binding [4]: binds
		IgG blocking mAb 16A8 (isotype-switched variant IgG) (antibody, V domains shown) VH: QVQLVQSGPDVRKPGATVKVSCQTSGYRFTDYEMNWVRQAPGQGLEWIGLINPHSGDTAYAQKFQGRVTMTSDTSDSTVYLELSGLTPDDTAVYYCARSQGTFEVYYFVSWGQGSLVTVSS VL: SYVLTQPPSMSVAPGTTASIPCGANNIAKKRVHWYRQKPGQAPVVVVSDDEDRSSVIPDRFSGSKSGDTATLTISRVEAGDEGDYYCQVWDSKTDHVVFGGGTKVTVL	binding [5]: binds
	binds	human IgE mAb 16A8 (antibody, V domains shown) VH: QVQLVQSGPDVRKPGATVKVSCQTSGYRFTDYEMNWVRQAPGQGLEWIGLINPHSGDTAYAQKFQGRVTMTSDTSDSTVYLELSGLTPDDTAVYYCARSQGTFEVYYFVSWGQGSLVTVSS VL: SYVLTQPPSMSVAPGTTASIPCGANNIAKKRVHWYRQKPGQAPVVVVSDDEDRSSVIPDRFSGSKSGDTATLTISRVEAGDEGDYYCQVWDSKTDHVVFGGGTKVTVL	
binds	binds	human IgE mAb 26C3 (antibody, V domains shown) VH: QVQLQESGPGLVKPSETLSLTCTVSGGSISSYYWTWIRQPAGKGLEWIGRIFTTGSTNYNPSLKSRVTMSVDTSKNQFSLHLTSVTAADTAVYYCARLRRVVPTAIWHFDLWGRGTRVTVSS VL: QTVVTQEPSISVSPGGTVTLTCGLSSGAVSTSYFPSWYQQIPGQAPRTLIYGTNTRSSGVPDRFSGSILGNKAALTITGAQADDECDYYCVLYMDSGVMVFGGGTKLTVL	
binds	binds	human IgE mAb 13D9 (antibody, V domains shown) VH: QVQLVESGGGLVKPGGSLRLSCVASGFTFSDFYMSWIRQAPGKGLEWVSYMSATGGNIYYADSMKGRLTISRDNTKNSLFLQMNSLRADDTALYYCARRKFGAGSAIFDHWSQGTLVTVSS VL: SYELTQPPSVSVSPGQTASVTCSGDKLGERYVSWYQQKAGQSPDLVIYQTNQRPSGIPERFSGSDSGNTATLTISGTQGLDEADYYCLTWDRGTPVFGTGTKVTVL	binding [6]: binds; binding [7]: binds
		IgG blocking mAb 13D9 (isotype-switched variant IgG) (antibody, V domains shown) VH: QVQLVESGGGLVKPGGSLRLSCVASGFTFSDFYMSWIRQAPGKGLEWVSYMSATGGNIYYADSMKGRLTISRDNTKNSLFLQMNSLRADDTALYYCARRKFGAGSAIFDHWSQGTLVTVSS VL: SYELTQPPSVSVSPGQTASVTCSGDKLGERYVSWYQQKAGQSPDLVIYQTNQRPSGIPERFSGSDSGNTATLTISGTQGLDEADYYCLTWDRGTPVFGTGTKVTVL	binding [5]: binds
